The target in the test is T1, Flag-RFP-CopC (full-length, WT) (Chromobacterium violaceum) (UniProt Q7NWF2).
T1 sequence: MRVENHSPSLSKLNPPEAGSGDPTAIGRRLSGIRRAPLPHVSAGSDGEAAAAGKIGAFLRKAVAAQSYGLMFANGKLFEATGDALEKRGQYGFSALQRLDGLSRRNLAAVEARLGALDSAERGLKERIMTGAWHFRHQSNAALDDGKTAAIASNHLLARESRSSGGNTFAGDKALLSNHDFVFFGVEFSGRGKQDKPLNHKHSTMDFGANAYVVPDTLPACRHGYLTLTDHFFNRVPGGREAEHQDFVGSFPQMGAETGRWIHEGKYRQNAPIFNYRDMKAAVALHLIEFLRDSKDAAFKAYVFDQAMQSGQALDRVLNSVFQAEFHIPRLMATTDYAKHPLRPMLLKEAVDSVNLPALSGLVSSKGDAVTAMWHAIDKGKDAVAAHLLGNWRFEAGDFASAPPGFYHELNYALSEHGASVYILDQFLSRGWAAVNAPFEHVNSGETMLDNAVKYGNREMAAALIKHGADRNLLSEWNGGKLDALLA
The test is described as follows: affinity purification with mass spectrometry.

Chains of the proteins cited; added tags and fusions are not shown.
UniProt P27482: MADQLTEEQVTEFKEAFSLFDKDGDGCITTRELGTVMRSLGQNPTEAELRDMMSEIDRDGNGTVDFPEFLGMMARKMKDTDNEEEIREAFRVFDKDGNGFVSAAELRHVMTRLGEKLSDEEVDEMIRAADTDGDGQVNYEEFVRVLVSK

Results are given in words; binding and its absence hold for the method and conditions named. In cells and extracts the contact can be indirect. A yes stands for co-enrichment or nearness to the bait. Other partners may have been found. Sequences can lack the tags named with a protein.

Regarding “CaM-like protein 3 (endogenous) (from UniProt P27482 1-149)”, the binding result is reported as “binds”.

(Values after PMC9239266.)
